The source of these data is publication PMC4405354.

The target of test [1] is BAK (mouse (endogenous in MEFs)) (UniProt O08734). The test is described as follows: cross-linking; mitochondria isolated from MEFs (0.5 mg/ml in EB, 25°C) treated with cBID, cross-linked with BMH; SDS-PAGE and anti-BAK immunoblot; cells treated with EGF or expressing MFN1 variants where indicated.
A further test deals with T1, FLAG-MFN1^T562D (UniProt Q8R4Z9).
T1 sequence: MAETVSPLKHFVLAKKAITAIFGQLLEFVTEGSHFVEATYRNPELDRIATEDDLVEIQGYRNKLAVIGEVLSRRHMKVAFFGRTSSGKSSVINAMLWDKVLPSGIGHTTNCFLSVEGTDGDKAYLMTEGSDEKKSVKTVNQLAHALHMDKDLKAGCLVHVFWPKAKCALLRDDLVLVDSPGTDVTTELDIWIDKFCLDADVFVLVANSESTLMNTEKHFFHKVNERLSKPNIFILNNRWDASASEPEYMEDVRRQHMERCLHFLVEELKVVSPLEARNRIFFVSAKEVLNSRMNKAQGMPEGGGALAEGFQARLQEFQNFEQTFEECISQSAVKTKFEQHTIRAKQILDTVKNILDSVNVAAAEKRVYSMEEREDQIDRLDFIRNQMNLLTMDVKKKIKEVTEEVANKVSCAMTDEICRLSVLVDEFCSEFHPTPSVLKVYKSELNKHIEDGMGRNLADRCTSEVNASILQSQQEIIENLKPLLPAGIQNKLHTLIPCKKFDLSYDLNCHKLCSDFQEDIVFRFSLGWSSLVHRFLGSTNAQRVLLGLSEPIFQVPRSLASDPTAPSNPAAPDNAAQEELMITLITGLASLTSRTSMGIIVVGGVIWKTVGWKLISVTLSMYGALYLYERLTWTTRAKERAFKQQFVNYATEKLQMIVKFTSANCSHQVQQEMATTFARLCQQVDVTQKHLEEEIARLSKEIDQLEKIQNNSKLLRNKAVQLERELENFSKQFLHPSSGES
The test is described as follows: co-IP; anti-FLAG immunoprecipitation from lysates of transfected Mfn1-/- or Mfn2-/- MEFs; lysis in CPBS (6 mM CHAPS in PBS pH 7.4); antibody 1:50, 14 hr, 4°C; protein G-coated magnetic beads; SDS-PAGE and immunoblot.

In test [2] the target is MFN1 (wild type) in reconstituted Mfn1-/- MEFs (UniProt Q8R4Z9). The test is described as follows: sucrose-gradient centrifugation; mitochondria from reconstituted Mfn1-/- MEFs homotypically mixed, 1 mM GTP 30 min 25°C, solubilized with 1% digitonin; 5%-20% discontinuous sucrose gradient, 174,000 x g, 12 hr, 4°C; fractions 12-19 immunoblotted. A general note: In western blotting, separated proteins are transferred to a membrane and probed.

The target in test [3] is MFN1^T562A in reconstituted Mfn1-/- MEFs (UniProt Q8R4Z9). The description is as above.
In test [4] the target is MFN1^T562D in reconstituted Mfn1-/- MEFs (UniProt Q8R4Z9). Described as above.

These are yes or no findings as the source states them, for the method shown. For some assays here: Binding seen in cells or lysates may run through a third protein. Some binding calls cover weakened binding; strength is not graded here. For some assays here: Sequences can lack the tags named with a protein.

B1: BAK (protein, UniProt O08734 1-209)
chain: MASGQGPGPPKVGCDESPSPSEQQVAQDTEEVFRSYVFYLHQQEQETQGAAAPANPEMDNLPLEPNSILGQVGRQLALIGDDINRRYDTEFQNLLEQLQPTAGNAYELFTKIASSLFKSGISWGRVVALLGFGYRLALYVYQRGLTGFLGQVTCFLADIILHHYIARWIAQRGGWVAALNFRRDPILTVMVIFGVVLLGQFVVHRFFRS
Consider B1, for which the binding result (in test [1]; with FLAG-MFN1^T562D) was “binds” in each case.

B2: MFN1 (wild type) in reconstituted Mfn1-/- MEFs (protein, UniProt Q8R4Z9 1-741)
chain: MAETVSPLKHFVLAKKAITAIFGQLLEFVTEGSHFVEATYRNPELDRIATEDDLVEIQGYRNKLAVIGEVLSRRHMKVAFFGRTSSGKSSVINAMLWDKVLPSGIGHTTNCFLSVEGTDGDKAYLMTEGSDEKKSVKTVNQLAHALHMDKDLKAGCLVHVFWPKAKCALLRDDLVLVDSPGTDVTTELDIWIDKFCLDADVFVLVANSESTLMNTEKHFFHKVNERLSKPNIFILNNRWDASASEPEYMEDVRRQHMERCLHFLVEELKVVSPLEARNRIFFVSAKEVLNSRMNKAQGMPEGGGALAEGFQARLQEFQNFEQTFEECISQSAVKTKFEQHTIRAKQILDTVKNILDSVNVAAAEKRVYSMEEREDQIDRLDFIRNQMNLLTMDVKKKIKEVTEEVANKVSCAMTDEICRLSVLVDEFCSEFHPTPSVLKVYKSELNKHIEDGMGRNLADRCTSEVNASILQSQQEIIENLKPLLPAGIQNKLHTLIPCKKFDLSYDLNCHKLCSDFQEDIVFRFSLGWSSLVHRFLGSTNAQRVLLGLSEPIFQVPRSLASTPTAPSNPAAPDNAAQEELMITLITGLASLTSRTSMGIIVVGGVIWKTVGWKLISVTLSMYGALYLYERLTWTTRAKERAFKQQFVNYATEKLQMIVKFTSANCSHQVQQEMATTFARLCQQVDVTQKHLEEEIARLSKEIDQLEKIQNNSKLLRNKAVQLERELENFSKQFLHPSSGES
As for B2, in test [2], the binding entry was “binds”.

B3: MFN1^T562A in reconstituted Mfn1-/- MEFs (protein, UniProt Q8R4Z9 1-741)
chain: MAETVSPLKHFVLAKKAITAIFGQLLEFVTEGSHFVEATYRNPELDRIATEDDLVEIQGYRNKLAVIGEVLSRRHMKVAFFGRTSSGKSSVINAMLWDKVLPSGIGHTTNCFLSVEGTDGDKAYLMTEGSDEKKSVKTVNQLAHALHMDKDLKAGCLVHVFWPKAKCALLRDDLVLVDSPGTDVTTELDIWIDKFCLDADVFVLVANSESTLMNTEKHFFHKVNERLSKPNIFILNNRWDASASEPEYMEDVRRQHMERCLHFLVEELKVVSPLEARNRIFFVSAKEVLNSRMNKAQGMPEGGGALAEGFQARLQEFQNFEQTFEECISQSAVKTKFEQHTIRAKQILDTVKNILDSVNVAAAEKRVYSMEEREDQIDRLDFIRNQMNLLTMDVKKKIKEVTEEVANKVSCAMTDEICRLSVLVDEFCSEFHPTPSVLKVYKSELNKHIEDGMGRNLADRCTSEVNASILQSQQEIIENLKPLLPAGIQNKLHTLIPCKKFDLSYDLNCHKLCSDFQEDIVFRFSLGWSSLVHRFLGSTNAQRVLLGLSEPIFQVPRSLASAPTAPSNPAAPDNAAQEELMITLITGLASLTSRTSMGIIVVGGVIWKTVGWKLISVTLSMYGALYLYERLTWTTRAKERAFKQQFVNYATEKLQMIVKFTSANCSHQVQQEMATTFARLCQQVDVTQKHLEEEIARLSKEIDQLEKIQNNSKLLRNKAVQLERELENFSKQFLHPSSGES
As for B3, the binding entry in test [3] is on record as “binds”.

B4: MFN1^T562D in reconstituted Mfn1-/- MEFs (protein, UniProt Q8R4Z9 1-741)
chain: MAETVSPLKHFVLAKKAITAIFGQLLEFVTEGSHFVEATYRNPELDRIATEDDLVEIQGYRNKLAVIGEVLSRRHMKVAFFGRTSSGKSSVINAMLWDKVLPSGIGHTTNCFLSVEGTDGDKAYLMTEGSDEKKSVKTVNQLAHALHMDKDLKAGCLVHVFWPKAKCALLRDDLVLVDSPGTDVTTELDIWIDKFCLDADVFVLVANSESTLMNTEKHFFHKVNERLSKPNIFILNNRWDASASEPEYMEDVRRQHMERCLHFLVEELKVVSPLEARNRIFFVSAKEVLNSRMNKAQGMPEGGGALAEGFQARLQEFQNFEQTFEECISQSAVKTKFEQHTIRAKQILDTVKNILDSVNVAAAEKRVYSMEEREDQIDRLDFIRNQMNLLTMDVKKKIKEVTEEVANKVSCAMTDEICRLSVLVDEFCSEFHPTPSVLKVYKSELNKHIEDGMGRNLADRCTSEVNASILQSQQEIIENLKPLLPAGIQNKLHTLIPCKKFDLSYDLNCHKLCSDFQEDIVFRFSLGWSSLVHRFLGSTNAQRVLLGLSEPIFQVPRSLASDPTAPSNPAAPDNAAQEELMITLITGLASLTSRTSMGIIVVGGVIWKTVGWKLISVTLSMYGALYLYERLTWTTRAKERAFKQQFVNYATEKLQMIVKFTSANCSHQVQQEMATTFARLCQQVDVTQKHLEEEIARLSKEIDQLEKIQNNSKLLRNKAVQLERELENFSKQFLHPSSGES
On to B4, for which, in test [4], the binding result was “binds”.
